Measured values from US9446051B2, “Neuroprotection and myelin repair using nestorone®” (The Population Council, Inc., priority 2009, dated 2016).
At least one structure is not confirmed: it was looked up by name or label, or the drawing left a doubt.

Tests used:
[1] = tested on: lysolecithin-demyelinated cerebellar slices; test: Remyelination of lysolecithin-demyelinated cerebellar slices (MBP staining intensity); type: cell-based, rat or mouse; conditions: RU486 at 10 μM with NES at 20 μm, 3 days
Description: In the same animal model, cerebellar slices were cultured until myelination was complete, then incubated overnight with lysolecithin (LYSO) to produce demyelination utilizing a known technique, (15) followed by 3 days of incubation with NES 20 μM in fresh culture medium (10% penetration in slices). Slices were immunostained for MBP. […] MBP staining intensity was measured in cerebellar slices after completion of normal myelination, after demyelination with lysolecithin, and after 3 days of incubation with NES at 20 μm, RU486 at 10 μM, or NES+RU486.

[2] = tested on: primary hippocampal neurons; test: Neuroprotection of primary hippocampal neurons against glutamate, LDH release; type: cell-based
Description: The effect of NES and other progestins on CNS plasticity and the neuroprotective efficacy against glutamate toxicity has also been evaluated. LDH was measured, as a well-accepted assay, to determine such effect after exposure of the cells to glutamate, and the neuronal viability was assessed under the action of various progestins.
Comparisons of neuroprotection against neurodegenerative insults were carried out. Efficacy was determined in connection with the protection of primary hippocampal neurons against degeneration induced by excitoxic glutamate. Hippocampal neuronal cultures grown on […] culture plates for 7d in vitro were pretreated with vehicle alone or test compounds, followed by exposure to 200 μM glutamate as previously described (13). After glutamate exposure, cultures were washed with HEPES-buffered saline solution and replaced with fresh NBM containing the test compounds or combinations. Cultures were returned to the incubator and incubated for 24 hours prior to analysis of neuronal viability using colorimetric LDH release in the media. Dose-response analysis was conducted for each of the progestins tested, and the results are shown in FIGS. 7A-F. Neuroprotective efficiency was calculated as follows: NE=(Vsample−Vglutamate)/(Vsubcontrol−Vglutamate).

[3] = tested on: androgenic, estrogenic and glucocorticoid responses; conditions: cited from earlier work
[4] = tested on: hippocampi of ovariectomized female Sprague Dawley rats; type: in vivo; conditions: stated 'as noted above'
Description: The impact of the combination of 17β-estradiol (E2) and various progestins on neurogenesis and cell viability […] was also carried out. Young adult ovariectomized female Sprague Dawley rates were thus divided into six groups and received injection of either E2 alone or E2 combined with one of the progestins. Hippocampi were isolated 24 hours later for Western blot analysis and flow cytometry to determine the impact of treatment on cell viability and neurogenesis respectively. The expression level of PCNA was assessed to determine the impact of the treatment compounds on entry into the cell cycle required for neurogenesis.

[5] = tested on: neural progenitor cell (NPC); test: Neural progenitor cell proliferation, BrdU chemiluminescence ELISA; type: cell-based, rat
Description: In vitro studies were carried out to determine neural progenitor cell (NPC) regeneration in rats. Cell proliferation was determined by S phase incorporation of BrdU. After 4 to 6 hours starvation (medium without supplements), rNPCs were loaded with 10 μM BrdU in the presence or absence of bFGF and varying concentrations of P4 or test progestins in unsupplemented maintenance medium for 1d. The rNPCs were then processed as described previously (1, 14). After subtracting the value of the blank (without BrdU loading), data were analyzed using a one-way ANOVA, followed by a Neuman-Keuls post hoc test.

[6] = tested on: hippocampus of Sprague-Dawley ovariectomized female rats; test: In vivo NPC proliferation and cell viability in ovariectomized rats (Western blot, FACS of BrdU+ cells); design: species or system rat; conditions: normalized to vehicle control, FIG. 8B
Description: The generalized ability of the above in vitro findings to the in vivo condition were investigated. Analyses of NPC proliferation in rats and cell viability were conducted in three-month-old Sprague-Dawley ovariectomized female rats with various of the progestins. […] In order to assess the total number of BrdU+ cells, the contralateral hippocampal hemisphere used for protein analysis was fixed and processed by FACS analysis. The total number of BrdU+ cells per each hippocampus was determined and normalized to that of vehicle control. […] In order to measure cell viability in terms of promotion of mitochondrial function and reduction in oxidative damage expression of the alpha subunit of ATP synthase-Complex V (CVα) of the mitochondrial oxidative phosphorylation pathway was assessed by Western blot analysis.

Row | SMILES | effect on NES-stimulated remyelination [1] | neuroprotective efficacy against glutamate toxicity (LDH) ([2]; FIG. 5, NES and PROG at 10−7M) | neuroprotective efficacy against 200 μM glutamate (LDH release) compared with progesterone ([2]; dose-response, FIGS. 7A-F) | androgenic response [3] | cell proliferation [4] | proliferation of progenitor cells compared with progesterone ([5]; FIG. 3 and FIG. 4) | NPC proliferation (BrdU incorporation) compared with progesterone ([5]; at 24 hours, FIGS. 6A-D) | total number of BrdU+ cells per hippocampus [6]
1 | CC#C[C@]1(O)CC[C@H]2[C@@H]3CCC4=CC(=O)CCC4=C3[C@@H](c3ccc(N(C)C)cc3)C[C@@]21C [RU486] | appeared to inhibit NES activity | – | – | – | – | – | – | –
2 | C#C[C@]1(O)CC[C@H]2[C@@H]3CCC4=CC(=O)CC[C@@H]4[C@H]3CC[C@@]21CC [levonorgestrel] | – | more active than PROG at lower doses | comparable efficacy to progesterone | induce androgenic responses | increased cell proliferation | less effective than progesterone | minimal or no effect on proliferation | comparable to progesterone
